Source: patent US10457662B2, “Substituted amides for treating and preventing cancer” (The Regents of the University of Michigan, priority 2015, dated 2019)

System: MiaPaCa-2 cells
Experiment: Gene Set Enrichment Analysis (GSEA) of Bru-seq pre-ranked list

## O=C(Nc1cccc2cccnc12)c1cnccn1 [QN523, Pyrazine-2-carboxylic acid quinolin-8-ylamide]
downregulated
  NES AMUNDSON_GAMMA_RADIATION_RESPONSE: −2.563
  NES BLUM_RESPONSE_TO_SALIRASIB_DN: −2.38
  NES CROONQUIST_NRAS_SIGNALING_DN: −2.497
  NES DUTERTRE_ESTRADIOL_RESPONSE_24HR_UP: −2.5
  NES GOBERT_OLIGODENDROCYTE_DIFFERENTIATION_UP: −2.35
  NES ISHIDA_E2F_TARGETS: −2.462
  NES KANG_DOXORUBICIN_RESISTANCE_UP: −2.424
  NES LEE_EARLY_T_LYMPHOCYTE_UP: −2.534
  NES MORI_LARGE_PRE_BII_LYMPHOCYTE_UP: −2.457
  NES PID_PLK1_PATHWAY: −2.362
  NES WHITEFORD_PEDIATRIC_CANCER_MARKERS: −2.472
  NES ZHAN_MULTIPLE_MYELOMA_PR_UP: −2.583
  NES ZHOU_CELL_CYCLE_GENES_IN_IR_RESPONSE_24HR: −2.366
upregulated
  NES BILD_HRAS_ONCOGENIC_SIGNATURE: 2.691
  NES BLUM_RESPONSE_TO_SALIRASIB_UP: 2.774
  NES BOQUEST_STEM_CELL_CULTURED_VS_FRESH_UP: 2.698
  NES CONCANNON_APOPTOSIS_BY_EPOXOMICIN_UP: 2.563
  NES DUTERTRE_ESTRADIOL_RESPONSE_24HR_DN: 2.697
  NES ELVIDGE_HYPOXIA_BY_DMOG_UP: 2.562
  NES ELVIDGE_HYPOXIA_UP: 2.562
  NES GARGALOVIC_RESPONSE_TO_OXIDIZED_PHOSPHOLIPIDS_BLUE_UP: 2.641
  NES GARGALOVIC_RESPONSE_TO_OXIDIZED_PHOSPHOLIPIDS_TURQUOISE_UP: 2.558
  NES GROSS_HYPOXIA_VIA_ELK3_DN: 2.653
  NES HELLER_SILENCED_BY_METHYLATION_DN: 2.77
  NES KRIGE_RESPONSE_TO_TOSEDOSTAT_24HR_UP: 2.68
  NES NAGASHIMA_NRG1_SIGNALING_UP: 2.718
  NES PICCALUGA_ANGIOIMMUNOBLASTIC_LYMPHOMA_DN: 2.638
  NES PODAR_RESPONSE_TO_ADAPHOSTIN_UP: 3.044
  NES TIEN_INTESTINE_PROBIOTICS_24HR_DN: 2.827
